Laboratory results from PMC5736175, “Nicotinic alpha 7 receptor agonists EVP-6124 and BMS-933043, attenuate scopolamine-induced deficits in visuo-spatial paired associates learning” (PLoS ONE, 2017).
Values joined by “and” are separate entries in the source; they are usually repeats but may differ in a detail not shown here. Equal values may be shown once. Where a name gives a salt, the structure may show the parent alone.

Key:
[1] = Plasma pharmacokinetics in satellite animals (LC-MS/MS), 60 min after i.m. dose; settings: for concentration at 60 min: cynomolgus monkey, in vivo, nM total compound in plasma from satellite animals
Experimental: For all compounds, plasma pharmacokinetic studies were conducted in a separate cohort of cynomolgus monkeys (N = 2–3 subjects per dose) before beginning vsPAL testing to help guide dose selection. Blood samples were obtained with the animals awake and sitting in a primate chair.
Plasma concentrations of test compounds were determined using LC-MS/MS assays. In brief, 50 μL plasma and sample containing compounds was extracted by protein precipitation method with 150 μL acetonitrile containing an internal standard. A 5 μL sample of supernatant was injected into the LC-MS/MS system. Analytes were separated by reversed phase chromatography and detection of each analyte was achieved through selected reaction monitoring mode of mass spectrometry. Samples were quantified by calculated peak area ratio of analyte and internal standard against a calibration curve.

[2] = tested on: scopolamine-treated cynomolgus monkeys; assay: Scopolamine-induced impairment of vsPAL task performance, treatment + scopolamine; assay type: in vivo, cynomolgus monkeys (Macaca Fasicularis)
Experimental: Doses cited refer to the free base form of the compounds. […] All drugs were administered intramuscularly (i.m.) in a dosing volume of 0.1–0.2 ml/kg.
On days when compound testing occurred, approximately half the cohort received one dose and the remainder another dose of the same compound and therefore dose order was staggered between animals. With the exception of EVP-6124, all other compounds were tested in a single dose response study.
Cohen’s d values of >0.2, >0.5 and >0.8 are described using the conventions of small, medium, and large effects, respectively.

COc1cc2c(cc1OC)C(=O)C(CC1CCN(Cc3ccccc3)CC1)C2 (stereo not shown) [Donepezil, Donepezil hydrochloride]
nM total compound in plasma from satellite animals, 60 min ([1]; 0.03 mg/kg i.m., individual subjects): 12.0 nM and 3.7 nM and 6.5 nM | nM total compound in plasma from satellite animals, 60 min ([1]; 0.10 mg/kg i.m., individual subjects): 21.7 nM | nM total compound in plasma from satellite animals, 60 min ([1]; 0.30 mg/kg i.m., individual subjects): 104.7 nM | concentration at 60 min ([1]; 0.03 mg/kg, 0.03 mg/kg i.m., mean): 7.4 nM | concentration at 60 min ([1]; 0.1 mg/kg, 0.10 mg/kg i.m., individual subjects): 16.6 nM | concentration at 60 min ([1]; 0.1 mg/kg, 0.10 mg/kg i.m., mean): 19.2 nM | concentration at 60 min ([1]; 0.3 mg/kg, 0.30 mg/kg i.m., individual subjects): 75.9 nM | concentration at 60 min ([1]; 0.3 mg/kg, 0.30 mg/kg i.m., mean): 90.3 nM | Average Response Latency ([2]; Donepezil 0.03 mg/kg + Scopolamine, individual animals): 2165.8 ms | % Completion ([2]; Donepezil 0.3 mg/kg + Scopolamine, group MEAN of 6 animals): 77.8%
